In publication PMC12635394, “UBE2O-mediated ubiquitylation directs cytoplasmic CTNNA1 to promote cell-to-ECM adhesions” (EMBO Reports, 2025):
Results are given in words; binding and its absence hold for the method and conditions named. Binding seen in cells or lysates may run through a third protein. Some entries that bind do so weakly or less than the wild type. Tags and fused reporters may be left off the sequences shown.

Amino acid sequences for entries named in this document (tags omitted).
UniProt P26231: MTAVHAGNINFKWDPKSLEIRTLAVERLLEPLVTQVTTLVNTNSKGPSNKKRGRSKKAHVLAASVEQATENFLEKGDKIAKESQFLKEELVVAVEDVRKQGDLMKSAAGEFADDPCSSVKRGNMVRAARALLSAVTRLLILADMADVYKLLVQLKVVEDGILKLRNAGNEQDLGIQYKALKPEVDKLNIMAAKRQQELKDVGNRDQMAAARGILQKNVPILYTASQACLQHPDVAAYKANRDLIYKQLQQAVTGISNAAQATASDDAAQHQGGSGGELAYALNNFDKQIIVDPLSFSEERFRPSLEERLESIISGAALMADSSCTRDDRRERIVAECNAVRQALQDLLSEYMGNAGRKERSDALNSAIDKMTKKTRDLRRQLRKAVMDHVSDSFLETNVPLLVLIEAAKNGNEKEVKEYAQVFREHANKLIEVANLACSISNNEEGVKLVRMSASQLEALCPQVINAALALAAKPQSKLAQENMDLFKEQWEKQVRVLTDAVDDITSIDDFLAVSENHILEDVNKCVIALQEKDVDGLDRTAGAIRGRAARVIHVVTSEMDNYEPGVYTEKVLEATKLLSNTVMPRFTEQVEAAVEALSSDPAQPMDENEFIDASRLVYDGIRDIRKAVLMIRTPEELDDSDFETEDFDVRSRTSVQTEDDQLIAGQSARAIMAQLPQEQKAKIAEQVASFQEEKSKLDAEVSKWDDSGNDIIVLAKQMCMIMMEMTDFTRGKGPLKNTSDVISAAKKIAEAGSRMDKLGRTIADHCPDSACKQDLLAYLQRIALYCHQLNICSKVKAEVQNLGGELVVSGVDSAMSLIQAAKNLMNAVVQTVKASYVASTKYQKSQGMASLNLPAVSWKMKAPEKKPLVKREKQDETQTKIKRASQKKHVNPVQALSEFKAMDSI

Experiments:
[1] = target: CTNNA1-V5 (purified mouse CTNNA1 with C-terminal V5 tag) (mouse) (UniProt P26231); experiment: pull-down; ctrl, CTNNA1-V5 (no ATP) or ubiquitylated CTNNA1-V5 baits on V5-Trap magnetic agarose, incubated overnight at 4 °C with lysate of HEK293T, MDCK, MEFs or HEK293T expressing Flag-CTNNA1 or Flag-CTNNA2, immunoblot; only the target purified
[2] = target: T1, Flag-CTNNA2 (full-length human CTNNA2) (human) (UniProt P26232); experiment: co-IP; co-expression of tagged full-length or truncated proteins in transfected cells (36 h), anti-Flag M2 affinity gel 90 min at 4 °C, immunoblot
T1 sequence: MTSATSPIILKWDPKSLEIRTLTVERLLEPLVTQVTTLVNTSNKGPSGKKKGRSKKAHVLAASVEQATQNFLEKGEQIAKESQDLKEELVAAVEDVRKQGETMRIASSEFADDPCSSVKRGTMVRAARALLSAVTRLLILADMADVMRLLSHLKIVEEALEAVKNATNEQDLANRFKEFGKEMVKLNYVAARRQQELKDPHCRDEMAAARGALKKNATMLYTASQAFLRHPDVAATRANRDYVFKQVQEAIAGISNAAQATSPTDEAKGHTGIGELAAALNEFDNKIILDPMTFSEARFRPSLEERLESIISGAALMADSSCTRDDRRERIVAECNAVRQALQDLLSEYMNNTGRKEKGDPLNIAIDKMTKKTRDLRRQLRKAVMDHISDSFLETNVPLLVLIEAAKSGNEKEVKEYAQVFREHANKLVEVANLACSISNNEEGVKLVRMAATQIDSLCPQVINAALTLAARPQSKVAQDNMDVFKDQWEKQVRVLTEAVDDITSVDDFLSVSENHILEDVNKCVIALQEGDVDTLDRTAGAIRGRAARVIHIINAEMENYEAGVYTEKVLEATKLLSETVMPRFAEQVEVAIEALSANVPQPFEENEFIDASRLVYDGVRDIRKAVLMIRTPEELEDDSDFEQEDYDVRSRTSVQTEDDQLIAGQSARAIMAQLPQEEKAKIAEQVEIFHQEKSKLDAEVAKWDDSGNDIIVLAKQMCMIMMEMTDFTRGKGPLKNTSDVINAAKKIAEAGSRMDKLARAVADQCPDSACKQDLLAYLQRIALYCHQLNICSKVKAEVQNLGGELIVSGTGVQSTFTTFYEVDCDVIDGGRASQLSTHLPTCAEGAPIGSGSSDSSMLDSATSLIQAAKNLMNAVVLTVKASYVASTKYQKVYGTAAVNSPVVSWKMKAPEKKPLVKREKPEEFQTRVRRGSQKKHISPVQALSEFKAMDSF

[3] = target: Flag-tagged CTNNA1 (full-length mouse Ctnna1) (mouse) (UniProt P26231); experiment: as above

Question: “endogenous β-catenin (CTNNB1) of HEK293T cells (from UniProt P35222 1-781)” was tested. Which binding [1] did it give?
Answer: binds

Question: “endogenous β-catenin of mouse embryonic fibroblasts (from UniProt Q02248 1-781)” was tested. Which binding [1] did it give?
Answer: binds

B1: UBE2O-Myc (full length, expressed in cells) (enzyme, UniProt Q9C0C9 1-1292)
chain: MADPAAPTPAAPAPAQAPAPAPEAVPAPAAAPVPAPAPASDSASGPSSDSGPEAGSQRLLFSHDLVSGRYRGSVHFGLVRLIHGEDSDSEGEEEGRGSSGCSEAGGAGHEEGRASPLRRGYVRVQWYPEGVKQHVKETKLKLEDRSVVPRDVVRHMRSTDSQCGTVIDVNIDCAVKLIGTNCIIYPVNSKDLQHIWPFMYGDYIAYDCWLGKVYDLKNQIILKLSNGARCSMNTEDGAKLYDVCPHVSDSGLFFDDSYGFYPGQVLIGPAKIFSSVQWLSGVKPVLSTKSKFRVVVEEVQVVELKVTWITKSFCPGGTDSVSPPPSVITQENLGRVKRLGCFDHAQRQLGERCLYVFPAKVEPAKIAWECPEKNCAQGEGSMAKKVKRLLKKQVVRIMSCSPDTQCSRDHSMEDPDKKGESKTKSEAESASPEETPDGSASPVEMQDEGAEEPHEAGEQLPPFLLKEGRDDRLHSAEQDADDEAADDTDDTSSVTSSASSTTSSQSGSGTSRKKSIPLSIKNLKRKHKRKKNKITRDFKPGDRVAVEVVTTMTSADVMWQDGSVECNIRSNDLFPVHHLDNNEFCPGDFVVDKRVQSCPDPAVYGVVQSGDHIGRTCMVKWFKLRPSGDDVELIGEEEDVSVYDIADHPDFRFRTTDIVIRIGNTEDGAPHKEDEPSVGQVARVDVSSKVEVVWADNSKTIILPQHLYNIESEIEESDYDSVEGSTSGASSDEWEDDSDSWETDNGLVEDEHPKIEEPPIPPLEQPVAPEDKGVVISEEAATAAVQGAVAMAAPMAGLMEKAGKDGPPKSFRELKEAIKILESLKNMTVEQLLTGSPTSPTVEPEKPTREKKFLDDIKKLQENLKKTLDNVAIVEEEKMEAVPDVERKEDKPEGQSPVKAEWPSETPVLCQQCGGKPGVTFTSAKGEVFSVLEFAPSNHSFKKIEFQPPEAKKFFSTVRKEMALLATSLPEGIMVKTFEDRMDLFSALIKGPTRTPYEDGLYLFDIQLPNIYPAVPPHFCYLSQCSGRLNPNLYDNGKVCVSLLGTWIGKGTERWTSKSSLLQVLISIQGLILVNEPYYNEAGFDSDRGLQEGYENSRCYNEMALIRVVQSMTQLVRRPPEVFEQEIRQHFSTGGWRLVNRIESWLETHALLEKAQALPNGVPKASSSPEPPAVAELSDSGQQEPEDGGPAPGEASQGSDSEGGAQGLASASRDHTDQTSETAPDASVPPSVKPKKRRKSYRSFLPEKSGYPDIGFPLFPLSKGFIKSIRGVLTQFRAALLEAGMPECTEDK
Question: Which binding [2] does the source give for B1 here?
Answer: binds

Question: And the binding [3]?
Answer: binds

B2: endogenous β-catenin of MDCK cells (protein, UniProt B6V8E6 1-781)
chain: MATQADLMELDMAMEPDRKAAVSHWQQQSYLDSGIHSGATTTAPSLSGKGNPEEEDVDTTQVLYEWEQGFSQSFTQEQVADIDGQYAMTRAQRVRAAMFPETLDEGMQIPSTQFDAAHPTNVQRLAEPSQMLKHAVVNLINYQDDAELATRAIPELTKLLNDEDQVVVNKAAVMVHQLSKKEASRHAIMRSPQMVSAIVRTMQNTNDVETARCTAGTLHNLSHHREGLLAIFKSGGIPALVKMLGSPVDSVLFYAITTLHNLLLHQEGAKMAVRLAGGLQKMVALLNKTNVKFLAITTDCLQILAYGNQESKLIILASGGPQALVNIMRTYTYEKLLWTTSRVLKVLSVCSSNKPAIVEAGGMQALGLHLTDPSQRLVQNCLWTLRNLSDAATKQEGMEGLLGTLVQLLGSDDINVVTCAAGILSNLTCNNYKNKMMVCQVGGIEALVRTVLRAGDREDITEPAICALRHLTSRHQEAEMAQNAVRLHYGLPVVVKLLHPPSHWPLIKATVGLIRNLALCPANHAPLREQGAIPRLVQLLVRAHQDTQRRTSMGGTQQQFVEGVRMEEIVEGCTGALHILARDVHNRIVIRGLNTIPLFVQLLYSPIENIQRVAAGVLCELAQDKEAAEAIEAEGATAPLTELLHSRNEGVATYAAAVLFRMSEDKPQDYKKRLSVELTSSLFRTEPMAWNETADLGLDIGAQGEPLGYRQDDPSYRSFHSGGYGQDALGMDPMMEHEMGGHHPGADYPVDGLPDLGHAQDLMDGLPPGDSNQLAWFDTDL
Question: For B2, which binding [1] is on record?
Answer: binds

B3: Flag-CTNNA2 (full-length human CTNNA2) (protein, UniProt P26232 1-953)
chain: T1 sequence
Question: Which binding [1] does the source give for B3 here?
Answer: binds
